Assay results taken from PMC5520108.
These are yes or no findings as the source states them, for the method shown. In cells and extracts the contact can be indirect. Some entries that bind do so weakly or less than the wild type.

Sequences of proteins named here, by UniProt entry; tags and fusion partners are left off.
UniProt O60264: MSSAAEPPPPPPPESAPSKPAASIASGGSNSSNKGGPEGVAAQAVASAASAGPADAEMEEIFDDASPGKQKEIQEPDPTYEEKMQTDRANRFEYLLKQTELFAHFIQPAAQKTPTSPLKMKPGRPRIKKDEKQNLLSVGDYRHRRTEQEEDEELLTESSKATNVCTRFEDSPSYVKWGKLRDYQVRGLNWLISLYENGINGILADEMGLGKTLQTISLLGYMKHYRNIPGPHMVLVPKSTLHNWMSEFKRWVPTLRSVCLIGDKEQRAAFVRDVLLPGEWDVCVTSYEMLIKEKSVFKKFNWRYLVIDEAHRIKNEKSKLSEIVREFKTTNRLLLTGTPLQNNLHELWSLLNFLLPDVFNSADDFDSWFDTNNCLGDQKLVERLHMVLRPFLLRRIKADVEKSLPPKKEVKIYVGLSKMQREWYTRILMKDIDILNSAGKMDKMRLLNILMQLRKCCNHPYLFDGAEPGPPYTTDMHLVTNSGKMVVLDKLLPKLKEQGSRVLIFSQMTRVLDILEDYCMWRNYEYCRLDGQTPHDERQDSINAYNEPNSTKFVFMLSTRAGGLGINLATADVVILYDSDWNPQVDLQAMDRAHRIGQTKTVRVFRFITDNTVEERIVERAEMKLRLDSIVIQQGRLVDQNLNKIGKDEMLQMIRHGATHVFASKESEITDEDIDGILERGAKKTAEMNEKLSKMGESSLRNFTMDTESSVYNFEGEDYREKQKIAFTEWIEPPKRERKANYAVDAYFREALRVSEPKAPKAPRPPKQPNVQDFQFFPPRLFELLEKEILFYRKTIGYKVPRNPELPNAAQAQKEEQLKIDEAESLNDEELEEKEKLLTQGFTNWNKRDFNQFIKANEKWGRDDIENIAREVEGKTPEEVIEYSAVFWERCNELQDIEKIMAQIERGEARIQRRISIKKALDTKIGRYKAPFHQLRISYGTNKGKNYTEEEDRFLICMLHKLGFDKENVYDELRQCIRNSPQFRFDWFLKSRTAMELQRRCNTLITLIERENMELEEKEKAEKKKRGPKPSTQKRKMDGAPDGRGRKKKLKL
UniProt Q92466: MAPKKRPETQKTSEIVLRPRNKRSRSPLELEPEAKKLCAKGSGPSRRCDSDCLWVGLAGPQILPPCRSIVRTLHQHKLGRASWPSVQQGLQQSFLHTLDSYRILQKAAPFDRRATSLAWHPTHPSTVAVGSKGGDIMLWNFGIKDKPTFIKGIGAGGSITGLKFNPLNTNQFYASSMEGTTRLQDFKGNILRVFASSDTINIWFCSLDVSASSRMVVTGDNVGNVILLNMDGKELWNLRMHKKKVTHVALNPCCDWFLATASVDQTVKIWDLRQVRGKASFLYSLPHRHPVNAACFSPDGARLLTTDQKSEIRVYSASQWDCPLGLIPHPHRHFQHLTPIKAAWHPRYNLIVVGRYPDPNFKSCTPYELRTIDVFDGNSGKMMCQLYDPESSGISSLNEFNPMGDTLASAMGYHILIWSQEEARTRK
UniProt O95251: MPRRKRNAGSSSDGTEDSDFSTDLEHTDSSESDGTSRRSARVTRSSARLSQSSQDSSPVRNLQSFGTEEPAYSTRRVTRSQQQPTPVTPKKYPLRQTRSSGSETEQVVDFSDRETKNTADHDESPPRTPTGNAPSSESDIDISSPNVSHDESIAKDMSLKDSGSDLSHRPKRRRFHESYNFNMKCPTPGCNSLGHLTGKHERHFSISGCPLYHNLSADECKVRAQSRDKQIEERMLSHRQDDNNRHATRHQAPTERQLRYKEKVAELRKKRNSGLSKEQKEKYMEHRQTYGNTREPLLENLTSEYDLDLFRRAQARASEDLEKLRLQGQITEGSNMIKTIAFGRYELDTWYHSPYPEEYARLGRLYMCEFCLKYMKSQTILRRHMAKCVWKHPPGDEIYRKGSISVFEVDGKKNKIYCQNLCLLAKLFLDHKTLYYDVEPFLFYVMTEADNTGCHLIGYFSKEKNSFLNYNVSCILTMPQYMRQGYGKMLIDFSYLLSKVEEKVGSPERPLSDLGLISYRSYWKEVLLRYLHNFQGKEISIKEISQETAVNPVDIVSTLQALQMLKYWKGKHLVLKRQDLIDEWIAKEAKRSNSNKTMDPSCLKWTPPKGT

What was measured:
GFP-SNF2H (human) = GFP-SNF2H (human) (UniProt O60264); assay: co-IP; HEK293 cells overexpressing GFP-SNF2H and HA-DDB2 or Myc-HBO1; immunoprecipitated with anti-HA antibody, anti-Myc antibody and anti-GFP agarose; western blotting
[1] = target: endogenous SNF2H (human (endogenous in HeLa)) (UniProt O60264); assay: co-IP; lysates from ultraviolet-irradiated or non-irradiated HeLa cells immunoprecipitated with anti-SNF2H antibody; western blotting; endogenous proteins
HA-DDB2 = HA-DDB2 (UniProt Q92466); assay: co-IP; ChIP-western blot: HA-DDB2-transfected shCtl cells, mock or 40 J m^-2 ultraviolet, collected after 20 min; formaldehyde cross-linked, sonicated chromatin immunoprecipitated with anti-HA antibody, de-crosslinked, western blotting

binding (GFP-SNF2H (human))	binding [1]	binding (HA-DDB2)	Substance
no binding			HA-DDB2 (from UniProt Q92466 1-427)
binds weakly			Myc-HBO1 (from UniProt O95251 1-611)
	binds	binds	endogenous HBO1 (from UniProt O95251 1-611)
